Measurements reported in PubChem BioAssay AID504784 (Drosophila RNAi Screening Center, 2011)

Test: 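Genome-wide knock-down for genes giving too much or too little stored lipid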 (primary screen)
Cell system: Drosophila Kc167 embryonic cells
Reagent: long dsRNA against Drosophila genes, about 250 ng dsRNA per well
Timing: 4 days
Conditions: cells fed 400 µM oleic acid bound to BSA
Read-out: 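Cells imaged and segmented; ratio of lipid droplet area to nuclear area, log-transformed, then normalised as a B-score over the screen; higher means more stored lipid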
Direction: droplet/nuclear area B-score: higher = more stored lipid (overstorage)
The screen tested about 17,000 reagents; below is a random part of those with a known target gene and a result. 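Each column is one replicate's B-score; the combined score over replicates was not deposited, so single values may mislead.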 Reagents against one gene are numbered here. A plus sign joins genes that one reagent is predicted to hit.

droplet/nuclear area B-score, replicate 1	droplet/nuclear area B-score, replicate 2	droplet/nuclear area B-score, replicate 3	Target gene	reagent no.
1.12	0.214		CG8028	1
-0.819	-1.28		CG31957	1
-0.0747	-1.17		nemy (no extended memory)	1
-0.00861	-1.54	-2.12	nemy (no extended memory)	2
-2.48	-1.32	-0.911	Tango5 (Transport and Golgi organization 5)	1
-0.502	1.99		CG12945	1
0.124	-3.85		Rad1 + Sws1	1
-0.0497	-0.505		brp (bruchpilot)	1
-1.11	-1.34		brp (bruchpilot)	2
-0.814	0.138		brp (bruchpilot)	3
4.66	2.5		brp (bruchpilot)	4
0.682	0.674		CG1635	1
-4.68	0.449		dachs	1
1.38	-1.81		dachs	2
-2.49	-0.278		gbb (glass bottom boat)	1
1.21	1.57		Mes2 (Mesoderm-expressed 2)	1
2.23	3.86	-0.22	Mes2 (Mesoderm-expressed 2)	2
0.819	-0.0073		PIG-Wa (Phosphatidylinositol glycan anchor biosynthesis class W a)	1
1.71	-0.103		AANATL4 (Arylalkylamine N-acetyltransferase-like 4)	1
0.362	1.04		egg (eggless)	1
0.77	1.84		egg (eggless)	2
0.859	-0.583		CG5707	1
0.411	0.0553		timeout	1
0.489	-1.04		timeout	2
-1.56	-2.63		timeout	3
-1.4	-0.0623		timeout	4
-2.1	3.89		timeout	5
0.154	0.435		timeout	6
2.49	0.0896		CG6951	1
-1.77	-0.153		CG10102 (retired record)	1
-0.858	-0.0773		Ace (Acetylcholine esterase)	1
-0.00552	3.18		qm (quemao)	1
0.0959	-0.269		Obp83g (Odorant-binding protein 83g)	1
0.0247	-0.439		CG31058 (retired record)	1
0.251	0.00455		CG31058 (retired record)	2
2.12	4.3		RpS20 (Ribosomal protein S20)	1

Continued; the last 3 above are carried over.
droplet/nuclear area B-score, replicate 1	droplet/nuclear area B-score, replicate 2	droplet/nuclear area B-score, replicate 3	Target gene	reagent no.
0.0247	-0.439		CG31058 (retired record)	1
0.251	0.00455		CG31058 (retired record)	2
2.12	4.3		RpS20 (Ribosomal protein S20)	1
2.01	0.15		CG5958	1
-0.492	1.86		Tbcd (Tubulin-binding cofactor D)	1
0.419	-0.493		E23 (Early gene at 23)	1
1.3	0.21		E23 (Early gene at 23)	2
0.369	-0.0469		CG15478	1
0.0927	-0.463		Mnn1 (Menin 1)	1
-1.56	-0.228		CG2256	1
0.129	-1.2		CG11588	1
0.67	1.13		CG11588	2
0.0222	-0.0398		Cyp312a1 (Cytochrome P450 312a1)	1
-0.956	0.0323		CG31206	1
-1.78	-0.648	-0.00116	Deaf1 (Deformed epidermal autoregulatory factor-1)	1
-0.195	-0.641		Deaf1 (Deformed epidermal autoregulatory factor-1)	2
-0.241	-0.311		Lsp1beta (Larval serum protein 1 beta)	1
-0.392	-0.306		CG17292	1
-0.0586	-0.392		chic (chickadee)	1
2.06	0.0166		CG5445	1
0.012	-0.459		CG5445	2
-0.114	-1.09	0.337	Neto (Neuropilin and tolloid-like)	1
0.548	0.329	-1.07	Neto (Neuropilin and tolloid-like)	2
-2.02	-2.94	0.319	Neto (Neuropilin and tolloid-like)	3
0.628	-1.14	-0.978	Neto (Neuropilin and tolloid-like)	4
-0.301	0.458		PH4alphaPV (prolyl-4-hydroxylase-alpha PV)	1
0.476	-0.575		CG13220	1
-0.59	-0.00482		Ugt36D1 (UDP-glycosyltransferase family 36 member D1)	1
1.48	0.189		Ptip (PAX transcription activation domain interacting protein)	1
1.25	3.17		Ptip (PAX transcription activation domain interacting protein)	2
0.993	1.42		dUTPase (Deoxyuridine triphosphatase)	1
-0.999	3.85		Sec31 (Secretory 31)	1
0.173	0.197		resilin	1
0.00723	1.6		resilin	2
-1.32	-0.116		CG14017	1
0.454	-0.336		CG14676	1
1.74	0.98		CG13476	1
-0.202	1.07		CG6310	1
0.0834	-0.515		Src42A (Src oncogene at 42A)	1
-0.0296	0.492		Cdc6 (Cell division cycle 6)	1
0.768	0.487		CG4770	1
-0.102	-0.933	-0.695	vnd (ventral nervous system defective)	1
0.634	0.824		vnd (ventral nervous system defective)	2
0.716	-0.226		Muc91C (Mucin 91C)	1
-0.276	-0.367		Muc91C (Mucin 91C)	2
0.12	-1.17		CG1638	1
-1.15			Appl (beta amyloid protein precursor-like)	1
-2.23	-3.43		CG15365	1
-0.147	0.0467		CG15365	2
-0.0423	1.7		Hus1-like	1
